Laboratory results: patent US20110268748A1
No constants are given. Whether binding was seen depends on the method and setting. Some entries that bind do so weakly or less than the wild type.

Amino acid sequences for entries named in this document (tags omitted).
UniProt P19793: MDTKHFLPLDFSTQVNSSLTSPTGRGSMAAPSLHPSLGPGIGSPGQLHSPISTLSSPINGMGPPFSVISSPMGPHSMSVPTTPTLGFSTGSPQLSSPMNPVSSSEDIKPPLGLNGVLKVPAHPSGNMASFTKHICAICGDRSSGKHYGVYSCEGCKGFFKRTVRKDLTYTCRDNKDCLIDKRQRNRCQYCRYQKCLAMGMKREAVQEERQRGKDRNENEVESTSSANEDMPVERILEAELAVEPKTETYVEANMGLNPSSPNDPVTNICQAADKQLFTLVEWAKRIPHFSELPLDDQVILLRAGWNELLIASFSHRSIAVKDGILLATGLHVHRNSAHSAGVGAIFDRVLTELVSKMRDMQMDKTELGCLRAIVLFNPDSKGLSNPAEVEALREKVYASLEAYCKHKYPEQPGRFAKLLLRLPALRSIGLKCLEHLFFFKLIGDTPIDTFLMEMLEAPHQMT

Tests used:
[1] = biological target: Gal4NLBD589A (Gal4 DNA-binding domain fused to the Nurr1 ligand binding domain with alanine for aspartic acid at amino acid 589) (UniProt P04386); experiment: yeast two-hybrid, X-gal (white with the empty vector)
[2] = biological target: Gal4NLBD589A (Gal4 DNA-binding domain fused to the Nurr1 ligand binding domain with alanine for aspartic acid at amino acid 589) (UniProt P04386); experiment: yeast two-hybrid, growth on -His (no growth with the empty vector)

binding [1]: binds
binding [2]: binds
Substance: pPC86-RXR (Gal4 activation domain fused to full-length human RXRα) (from UniProt P19793 1-462)
